The chains behind the UniProt entries cited, without tags or fusion partners.
UniProt P18054, whole entry, looked up: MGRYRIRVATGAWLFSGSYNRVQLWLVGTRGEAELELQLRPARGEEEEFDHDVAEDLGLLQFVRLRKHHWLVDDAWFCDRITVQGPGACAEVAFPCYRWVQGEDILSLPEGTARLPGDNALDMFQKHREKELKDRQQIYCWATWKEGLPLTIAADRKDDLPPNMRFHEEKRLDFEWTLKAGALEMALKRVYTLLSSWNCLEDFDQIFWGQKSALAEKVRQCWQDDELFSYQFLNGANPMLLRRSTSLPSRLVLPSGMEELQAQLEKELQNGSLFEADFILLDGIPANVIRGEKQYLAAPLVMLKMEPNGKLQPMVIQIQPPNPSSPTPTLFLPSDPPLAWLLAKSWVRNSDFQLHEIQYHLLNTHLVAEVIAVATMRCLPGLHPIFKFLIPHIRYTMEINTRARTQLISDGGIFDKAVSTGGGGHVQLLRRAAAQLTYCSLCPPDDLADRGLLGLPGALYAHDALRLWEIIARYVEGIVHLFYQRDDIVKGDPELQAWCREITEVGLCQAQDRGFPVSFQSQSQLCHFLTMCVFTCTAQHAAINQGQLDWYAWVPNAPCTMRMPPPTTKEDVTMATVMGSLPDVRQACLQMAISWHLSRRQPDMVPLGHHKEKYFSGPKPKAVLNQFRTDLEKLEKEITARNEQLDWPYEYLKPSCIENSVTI

Screen size: about 580,000 compounds; about 6,100 (1.1%) were called active. Inconclusive results, whose numbers are uncertain, are shown with a selection of clear calls. Calls come from the whole dose curve; as a rule, active = well fitted inhibition curve with a large enough effect; inconclusive = small, poorly fitted or top-dose-only effect, or another doubt; inactive = no such curve, though single readings can be large or run the other way. Potencies of inconclusive entries are doubtful fits and often do not repeat.
These compounds were tested against Polyunsaturated fatty acid lipoxygenase ALOX12 (Homo sapiens) (UniProt P18054) (assay: Primary qHTS assay for inhibitors of human arachidonate 12S-lipoxygenase (ALOX12): Round 2). Settings: purified 12hLO, xylenol orange hydroperoxide absorbance; activity change, negative = inhibition: at 108 µM (top of the series) unless noted.
Source text: Assay Provider: Theodore R. Holman Ph.D. University of California, Santa Cruz, California Human lipoxygenase 12hLO is a member of the closely related lipoxygenase family of enzymes which catalyze the site-specific oxidation of arachidonic acid to various hormone precursor molecules and as such is a candidate for drug development in a variety of disease areas, such as cancer and inflammation. Inhibition of 12hLO activity was screened by utilizing arachidonic acid as a substrate. The extent of hydroperoxide product formation was measured by a secondary chromogenic reaction in which xylenol orange (XO, Sigma-Aldrich, cat. number 39,818-7) reacts with the ferric ions produced from the reaction between the hydroperoxide and ferrous ions. The Fe (III)-XO complex is characterized with red-shifted absorbance at 560 nm. A purified preparation of human 12hLO was supplied by Dr. Holman laboratory, University of California, Santa Cruz.
PROTOCOL TABLE SEQUENCE No. (e.g., 1, 2, 3, etc.); […] (e.g., Cells, Incubation, Reagent, etc.); VALUE; DESCRIPTION 1; Enzyme; 3 uL; 150 nM 12hLO enzyme solution dispensed in 1536-well Greiner black, clear bottom plates. 2; Compound; 23 nL; compounds and controls were added. 3; Incubate; 15 min; room temperature. 4; Substrate; 1 uL; 40 uM arachidonic acid (final concentration). 5; Incubate; 30 min; room temperature. 6; Reagent; 4 uL; Fe-XO solution was added to each well. 7; Incubation; 30 min; room temperature 8; Detector; absorbance; Read 1 at 405 nm absorbance using ViewLux (Perkin-Elmer) CCD imager. 9; Detector; absorbance; Read 2 at 573 nm absorbance using ViewLux (Perkin-Elmer) CCD imager. NOTES (numbers refer to sequence above) 1; 150 nM 12hLO (final concentration) in buffer solution (25 mM Hepes, 0.01% Triton X-100, pH 7.0) was dispensed in columns 1, 2, 5-48. Column 1 is neutral (100% activity). Buffer only was dispensed in columns 3 and 4 as no enzyme negative controls. The plates were covered with metal lids with gas-exchange holes. 2; Compounds were pin transferred via a Kalypsys Pin Tool (Wako USA) in column 5-48. Control compound was transferred in column 2, titration of nordihydroguaiaretic acid (NDGA, Sigma-Aldrich, N5023) with top concentration of 20 mM in DMSO then 1:3 dilution in duplicate. Dilution factor of 23 nL into 4 uL final assay volume. 3; Covered assay plates were incubated for 15 min at room temperature. 4; Substrate was added to start the reaction; 40 uM arachidonic acid (Sigma-Aldrich, St. Louis, MO) was dispensed throughout the plate. 6; Chromogenic detection reagent solution (divalent iron/xylenol orange, Fe-XO) was added to each well: 200 uM xylenol orange, 300 uM ferrous ammonium sulfate prepared freshly in 50 mM sulfuric acid. 8, 9; Two absorbance readouts were obtained at 405 nm and at 573 nm using a ViewLux high-throughput CCD plate imager (Perkin-Elmer). The 573 to 405 (Read 2 / Read 1) absorbance ratio was used to compute reaction progress.
With `CCOC(=O)C1=C(C(=O)OCC)C2N(Cc3ccc(Br)cc3)c3ccccc3[C@@]23C[C@@H](C(=O)OC)N(S(=O)(=O)c2ccc(OC)cc2)C3=N1` (some centres not stated) the Potency was “inactive”. For `O=C(OCCCN=C1NS(=O)(=O)c2ccccc21)c1ccc([N+](=O)[O-])cc1`, the Potency was inconclusive: 158 µM [inhibitor, single point]. With `COc1ccc(-c2cc(-c3ccc(Cl)cc3)c(C#N)c(SCC(=O)O)n2)cc1` the Potency was inconclusive: 44.7 µM [inhibitor, partial curve, poor fit]. For `CCOC(=O)c1c(NC(C)=O)c2c3c(sc2n1Cc1nc(-c2cccc(C)c2)oc1C)CCCC3`, the Potency was inconclusive: 158 µM [inhibitor, partial curve, poor fit]. `COc1ccc(S(=O)(=O)N2CCCC2C(=O)Nc2nnc(-c3cccnc3)s2)cc1` (configuration not stated) was tested, and the Potency was active: 39.8 µM. In the case of `Cc1cnc(NC(=O)c2ccco2)s1`, the Potency is reported as inconclusive: 44.7 µM [inhibitor, partial curve]. In the case of `CCCN(CCC)c1nc2ccccc2nc1C(C#N)C(=O)OCCOC` (configuration not stated), the Potency is reported as inconclusive: 8.91 µM [inhibitor, full curve, poor fit]. `CCc1sc(/C=C(/C#N)C(N)=S)cc1[N+](=O)[O-]` was tested, and the Potency was inconclusive: 44.7 µM [inhibitor, partial curve]. In the case of `Cc1ccc(CSc2nnc(COc3ccc(Cl)cc3)n2C)cc1`, the Potency is reported as inconclusive: 31.6 µM [inhibitor, partial curve, poor fit]. With `O=C1CC(N(CCc2ccccc2)C(=S)Nc2cc(Cl)ccc2Cl)C(=O)N1c1c(Cl)cccc1Cl` (configuration not stated) the Potency was inconclusive: 1.26 µM [inhibitor, full curve, poor fit]. With `O=C(Nc1ccccc1C(=O)OCC(=O)N1CCC(Cc2ccccc2)CC1)c1ccco1` the Potency was inconclusive: 31.6 µM [inhibitor, partial curve]. In the case of `Cc1cc([N+](=O)[O-])nn1CCCC(=O)Nc1sc2c(c1C(N)=O)CCC(C)C2` (configuration not stated), the Potency is reported as “inactive”. For `CCCNC(=O)CCc1nnc2ccc(N3CCC(C)CC3)nn12`, the Potency was “inactive”. With `CC(C)Cn1c(N)c(C(=O)COC(=O)c2cc(-c3ccccc3)nc3ccccc23)c(=O)n(C)c1=O` the Potency was “inactive”. `Cc1cccc(C)c1NC(=O)C(c1ccccc1)N(C)CCc1ccccc1` (configuration not stated) was tested, and the Potency was “inactive”. For `COc1ccc(OC)c(S(=O)(=O)N2CCCCCCN(C)C(=O)CC2)c1`, the Potency was “inactive”. `COc1ccc(C2Nc3ccc(C)cc3[C@H]3OCCC[C@@H]23)cc1Br` (some centres not stated) was tested, and the Potency was “inactive”. For `Cc1ccc(C)n1C1C(=O)N(C)c2ccc(OC(F)(F)F)cc21` (configuration not stated), the Potency was inconclusive: 50.1 µM [inhibitor, partial curve, poor fit]. In the case of `O=C1C=C(c2ccccc2)CC(c2cccs2)C1n1cnc([N+](=O)[O-])c1` (configuration not stated), the Potency is reported as inconclusive: 12.6 µM [inhibitor, full curve, poor fit]. With `CNc1nc(-c2ccc(NC(C)=O)cc2F)cs1` the Potency was active: 31.6 µM. In the case of `O=S(=O)(Nc1ncnc2sc3c(c12)CCC3)c1ccc2ccccc2c1`, the Potency is reported as inconclusive: 44.7 µM [inhibitor, partial curve, poor fit]. In the case of `N#Cc1ccc(C23CC4(C2)[C@H](CN(CC2CCCCC2)[C@@H]4c2ccccc2)C3c2ccccc2)cc1` (some centres not stated), the Potency is reported as inconclusive: 39.8 µM [inhibitor, partial curve, poor fit]. With `O=C(CSc1nc2cc([N+](=O)[O-])ccc2o1)NC12CC3CC(CC(C3)C1)C2` the Potency was inconclusive: 0.398 µM [inhibitor, full curve, poor fit]. For `CCN(CC)C(=O)COc1c(-c2ccco2)oc2ccccc2c1=O`, the Potency was inconclusive: 50.1 µM [inhibitor, partial curve, poor fit]. In the case of `COc1ccc(/C=C/C2=CC(C)(C)NC(=S)N2)cc1`, the Potency is reported as inconclusive: 44.7 µM [inhibitor, partial curve, poor fit]. In the case of `Cc1ccc(CN(C)C(C)C(=O)N(C)CC(=O)Nc2ccccc2C(F)(F)F)cc1` (configuration not stated), the Potency is reported as “inactive”. In the case of `O=C(Nc1ccc(S(=O)(=O)N2CCOCC2)cc1)c1c(F)cccc1F`, the Potency is reported as inconclusive: 44.7 µM [inhibitor, partial curve, poor fit]. In the case of `O=C(NC1CCCC1)c1ccc(Oc2nccnc2Sc2ccccc2)cc1`, the Potency is reported as “inactive”. With `Cc1ccc(NC(=S)N/N=C2\CCCCC2C)cc1` (configuration not stated) the Potency was inconclusive: 39.8 µM [inhibitor, partial curve, poor fit]. With `COc1ccc(C2C(C(=O)c3ccc(C)o3)=C(O)C(=O)N2Cc2ccco2)cc1OC` (configuration not stated) the Potency was inconclusive: 3.16 µM [inhibitor, full curve, poor fit]. In the case of `CC[C@@H](C)[C@@H]1CN([C@@H](C)CN2CCC[C@H]2CN2C(N)=NC[C@@H]2Cc2ccccc2)C(=N)N1CCCC1CCCC1`, the Potency is reported as inconclusive: 70.8 µM [inhibitor, partial curve, poor fit]. `CC(C)C[C@H](N)c1nnc(SCc2ccc(Cl)cc2)o1` was tested, and the Potency was “inactive”. For `O=c1[nH]c2cccnc2n1C1CC1`, the Potency was inconclusive: 126 µM [inhibitor, partial curve, poor fit]. For `Cc1ccc(OCC(=O)NNC(=O)c2cc(C)[nH]n2)cc1`, the Potency was “inactive”. For `CCN(CC)C(=O)Cn1cc(S(=O)(=O)CC(=O)Nc2cc(OC)ccc2OC)c2ccccc21`, the Potency was inconclusive: 3.55 µM [inhibitor, full curve]. In the case of `Clc1ccc(N2CCN(Cc3ccc(Br)o3)CC2)cc1`, the Potency is reported as active: 0.891 µM. `Clc1ccc(Br)cc1-c1nc(-c2ccncc2)no1` was tested, and the Potency was “inactive”. For `O=C(NCc1ccncc1)C1CN(S(=O)(=O)c2cccs2)CC12CCCCC2` (configuration not stated), the Potency was “inactive”. In the case of `CCOc1ccc2oc(-c3ccccc3)c(C(=O)N(C)C)c2c1`, the Potency is reported as “inactive”. `Cc1ccc(-n2nc3c(c2NC(=O)c2ccco2)CS(=O)C3)c(C)c1` (configuration not stated) was tested, and the Potency was inconclusive: 44.7 µM [inhibitor, partial curve, poor fit]. In the case of `COc1cccc2c1OCC(CNC(=O)CCc1cn3ccccc3n1)C2` (configuration not stated), the Potency is reported as inconclusive: 89.1 µM [inhibitor, partial curve, poor fit]. For `CCCc1cc(C(=O)Nc2c(C)nn(Cc3ccc(Cl)c(Cl)c3)c2C)no1`, the activity change, negative = inhibition was inconclusive: -35.1% [inhibitor]. With `CC(C)c1ccc(OCc2cccc(C(=O)N/N=C/c3cccnc3)c2)cc1` the Potency was “inactive”. With `COC(=O)[C@@H]1C[C@H]2CC[C@H](O)C[C@H]2N1Cc1ccc(C)s1` the Potency was inconclusive: 44.7 µM [inhibitor, partial curve, poor fit]. `O=C1NC(=O)/C(=C\c2ccc(N3CCOCC3)o2)N1` was tested, and the Potency was active: 20 µM. In the case of `Cc1cccc2nc(-c3ccccc3)c(-c3ccc(CN4CCC5(CC4)CNc4ccccc45)cc3)nc12`, the Potency is reported as inconclusive: 50.1 µM [inhibitor, partial curve, poor fit]. `Cc1nn(-c2ccccc2)c(OC(=O)C(C)(C)C)c1Sc1ccccc1` was tested, and the Potency was inconclusive: 56.2 µM [inhibitor, partial curve, poor fit]. For `COc1ccc(C)cc1NC(=O)Cn1c(-c2ccc(Cl)cc2)nc(C)c(CCO)c1=O`, the Potency was inconclusive: 39.8 µM [inhibitor, partial curve]. In the case of `O=C(Nc1ccc(Cl)cc1)N1CCCC(Cn2cccc2)C1` (configuration not stated), the Potency is reported as inconclusive: 112 µM [inhibitor, single point]. In the case of `c1cncc(CNc2cc(-c3ccoc3)ncn2)c1`, the Potency is reported as inconclusive: 2 µM [inhibitor, full curve, poor fit]. For `COc1cc(OC)cc(C(=O)/C(=C\c2ccncc2)c2nc3ccccc3o2)c1`, the Potency was active: 28.2 µM. `c1cncc(CN2CCN(Cc3c[nH]c4ccccc34)CC2)c1` was tested, and the Potency was active: 0.316 µM. With `Oc1ccc(/C=N/N2CCCCC2)c(O)c1` the Potency was “inactive”. With `CN1CCN([C@H]2[C@@H]3OC[C@@H](O3)[C@@H](NC(=O)Nc3ccccc3)[C@@H]2O)CC1` the Potency was inconclusive: 126 µM [inhibitor, partial curve, poor fit]. In the case of `O=C(NC1Cc2ccccc2C1)c1ccccc1`, the Potency is reported as inconclusive: 17.8 µM [inhibitor, full curve, poor fit]. In the case of `COCCN(C(=O)c1snc(C(N)=O)c1N)C(C(=O)NC1CCCCC1)c1cc(OC)c(OC)c(OC)c1` (configuration not stated), the Potency is reported as “inactive”. In the case of `COc1cccc(CNc2ccc(S(N)(=O)=O)cc2)c1OCc1ccccc1F`, the Potency is reported as “inactive”. With `Cc1ccc2c(Cl)cc(Cl)c(OCC(=O)NC(=O)NC(C)C)c2n1` the Potency was inconclusive: 31.6 µM [inhibitor, partial curve]. In the case of `COc1ccccc1-c1nccc2c(=O)cc(C3=CCOCC3)oc12`, the Potency is reported as inconclusive: 50.1 µM [inhibitor, partial curve, poor fit]. In the case of `COc1ccccc1Oc1coc2c(CN(C)C)c(O)ccc2c1=O`, the Potency is reported as inconclusive: 5.01 µM [inhibitor, partial curve, poor fit]. For `Cc1ccc(C(=O)Nc2ccc3oc(-c4ccncc4)nc3c2)c(Cl)c1`, the Potency was “inactive”. With `O=C1NC(=NC2CCCC2)C2(CCCN(Cc3ccc(F)cc3)C2)N1c1cc(F)cc(F)c1` (configuration not stated) the Potency was inconclusive: 112 µM [inhibitor, partial curve, poor fit]. In the case of `COc1cccc(C2=CC(c3ccc(OC)c(OC)c3)NC(=S)N2)c1` (configuration not stated), the Potency is reported as inconclusive: 56.2 µM [inhibitor, single point]. `C=CCc1cc(OC)ccc1OCCOCCN1CCc2ccccc2C1` was tested, and the Potency was inconclusive: 0.708 µM [inhibitor, full curve]. For `COC1C(=O)N(C2CCN(C(=O)NCc3ccccc3)CC2)C12CCOCC2` (configuration not stated), the Potency was “inactive”. With `O=C(c1cnsn1)N1CCCC(Nc2ccc(F)c(F)c2)C1` (configuration not stated) the Potency was inconclusive: 89.1 µM [inhibitor, single point]. In the case of `COc1ccc(N/C=C/C(=O)c2ccc(C)c(C)c2)cc1Cl`, the Potency is reported as inconclusive: 50.1 µM [inhibitor, single point].
% is set by controls: 0 for no effect and ±100 for the full control effect; potency is the fitted concentration of half-maximal effect.
